Measured values: PubChem BioAssay AID540276 (National Center for Advancing Translational Sciences (NCATS), 2011)
“And” between values parts separate entries of the source, which are not always exact repeats. Equal entries are not always repeated. In all, about 300,000 compounds went through this assay and about 5,400 (1.8%) were called active. The inconclusive results got no clear call from the source; some entries with a clear call stand among them for comparison. Calls follow the shape of the full dose curve; tested in HEK293 cells. Potencies beside an inconclusive call are fits to weak or partial responses and may not hold up.

Assay: qHTS for inhibitors of binding or entry into cells for Marburg Virus
Conditions: Marburg virus pseudotyped entry inhibition, cell reporter; activity change, negative = inhibition: at 37.8 µM (top of the series) unless noted
% is scaled to controls: 0 for no effect and ±100 for the full control effect; potency is read from the fitted curve at half-maximal effect.

SMILES	Potency	activity change, negative = inhibition
CN(Cc1ccc(-n2cccn2)cc1)Cc1cn(C)nc1-c1ccccc1F	inconclusive: 1.78 µM [inhibitor, full curve, poor fit]	
N=c1c(C(=O)NCCc2ccccc2)cc2c(=O)n3ccccc3nc2n1CC1CCCO1 (stereo unspecified)	inconclusive: 4.47 µM [inhibitor, full curve, poor fit]	
COc1ccc(CN2CCC(Oc3ccc(C(=O)N4CCCC4)cc3)CC2)c(F)c1		inactive: -14.7%
CC(C)Oc1ccc(C(=O)NC(=S)Nc2ccc(Cl)c(C(=O)O)c2)cc1	inconclusive: 14.1 µM [activator, partial curve]	
Cc1cc(C(=O)CN2C(=O)C(=O)N(Cc3ccco3)C2=O)c(C)n1CCc1ccccc1	inconclusive: 1 µM [inhibitor, full curve, poor fit]	
CN(C)C=NC(=O)c1cc2c(n(-c3ccccc3)c1=O)CC(C)(C)CC2=O		inactive: -2.12% [at 46.1 µM]
COC(=O)[C@@]1(Cc2ccc(F)cc2)[C@H]2c3cc(C(=O)N4CCCC4)n(CCc4ccc(O)c(O)c4)c3C[C@H]2CN1C(=O)c1ccccc1	inconclusive: 0.82 µM [inhibitor, full curve, poor fit]	
CCNCc1cc(OCC)c(OCC(=O)NCCc2ccccc2)cc1Cl	inconclusive: 14.6 µM [inhibitor, partial curve]	
CC(=O)Nc1cc2nc(C)n(Cc3ccc([N+](=O)[O-])cc3)c2nc1C	inconclusive: 22.4 µM [inhibitor, single point]	
Cc1cccc2sc(N(CCCN(C)C)C(=O)c3ccco3)nc12	inconclusive: 10 µM [inhibitor, partial curve, poor fit]	
C/C(=N\N1C(=O)CSC1=S)c1ccc(Br)cc1		inactive: 26.3% [at 46.1 µM]
Cc1ccc(CN2CCSc3ccc(C(=O)NCCc4ccccc4)cc32)cc1		inactive: -0.311% [at 46.1 µM]
COc1ccc(C(=O)Nc2ccc(OCC(F)(F)C(F)F)c(C(F)(F)F)c2)cc1OC	inconclusive: 35.5 µM [inhibitor, single point]	
O=C(Nc1nnc(SCc2ccc(F)cc2)s1)c1ccc2ncsc2c1		inactive: -34.2%
CCc1cccc(C)c1NC(=O)CCCSc1nc2ccccc2s1		inactive: -20.6%
CC1(c2ccccc2Cl)NC(=O)N(CC(=O)N2CCN(S(=O)(=O)c3ccccc3)CC2)C1=O (stereo unspecified)	inconclusive: 2.51 µM [activator, partial curve, poor fit]	
O=C(Cn1ccc([N+](=O)[O-])n1)c1ccccc1		inactive: -0.855%
Cc1c(CC(=O)N2CCCCC2)c(=O)oc2c(C)c3occ(C(C)(C)C)c3cc12		inactive: 9.78% [at 46.1 µM]
O=C(c1cccn2c(=O)c3cc(Cl)ccc3nc12)N1CCN(Cc2ccc3c(c2)OCO3)CC1	inconclusive: 29.1 µM [inhibitor, single point]	
CCOc1cc(C(=S)N2CCOCC2)ccc1OC(=O)/C=C/c1ccc(OC)c(OC)c1	inconclusive: 35.5 µM [activator, partial curve, poor fit]	
COc1ccccc1C(=O)Nc1nnc(-c2ccc(F)cc2)s1		inactive: 0.67% [at 46.1 µM]
CCOC(=O)OC[C@H]1O[C@H](c2ccc(C(C)=O)cc2)C=C[C@H]1Oc1ccc(-c2ccccc2)cc1		inactive: 2.82% [at 14.2 µM]

SMILES	Potency	activity change, negative = inhibition
CC1(C)Cc2ccccc2-c2nnc(-c3ccc4ccccc4n3)n21	inconclusive: 31.6 µM [inhibitor, single point]	
COc1c(Cl)cc(C(=O)Nc2ccccc2-c2ccccc2)cc1Cl	inconclusive: 4.47 µM [inhibitor, full curve, poor fit]	
CCC(=O)n1nc(-c2cccnc2)nc1NCc1ccc(F)cc1	inactive and inconclusive: 35.5 µM [inhibitor, single point]	
O=C(COC(=O)CNC(=O)C1CCCCC1)Nc1ccc(Cl)cn1	inconclusive: 0.103 µM [activator, full curve, poor fit]	
COc1ccc(N=Cc2c(OC)ccc3ccccc23)cc1	inconclusive: 3.98 µM [activator, single point]	
C=CCNC(=S)NCc1ccc(CNC(=S)NCC=C)cc1		inconclusive: 7.2% [activator] [at 46.1 µM]
Fc1ccc(CSc2ccc(-c3cccs3)nn2)cc1	inconclusive: 4.47 µM [activator, full curve, poor fit]	
Cc1ccc(SCC(=O)Nc2cc([N+](=O)[O-])ccc2O)cc1	inconclusive: 4.47 µM [inhibitor, partial curve, poor fit]	
CC1=Nc2ccccc2/C1=C\c1sc(Nc2ccc(C)cc2)nc1O	inconclusive: 1.41 µM [inhibitor, full curve, poor fit]	
COc1ccc(-c2noc(N3CCC(C(=O)N4CCN(c5ccccn5)CC4)CC3)n2)cc1	inconclusive: 29.1 µM [inhibitor, single point]	
CC(C)c1ccc(OCc2ccc(C(=O)NN3CCN(C)CC3)o2)cc1	inconclusive: 35.5 µM [inhibitor, single point]	
O=C(COc1ccccc1)N1CCN(C(=O)c2ccc([N+](=O)[O-])cc2)CC1		inactive: 6.31%
CCC(C)NC(=O)CSc1ccc(Cl)cc1 (stereo unspecified)	inactive	
O=C(O)/C=C/C(=O)Nc1nccs1		inactive: 0.614% [at 46.1 µM]
O=C(COc1nncc2ccccc12)Nc1ccc(Br)cc1F	inconclusive: 2.51 µM [inhibitor, partial curve, poor fit]	
COc1ccc(/C=N/Nc2ccccn2)c(OC)c1OC	inconclusive: 12.6 µM [inhibitor, partial curve, poor fit]	
Cc1ccc(OCC(=O)Nc2ccc(C)c(S(=O)(=O)N3CCCCC3)c2)c([N+](=O)[O-])n1	active: 1.12 µM	
O=C(COc1ccc(Cl)cc1Cl)Nc1ccc2nc3n(c(=O)c2c1)CCCC3	inconclusive: 28.2 µM [inhibitor, single point]	
CCNS(=O)(=O)c1ccc(CCC(=O)N2CCN(c3cc(Cl)ccc3C)CC2)cc1	inconclusive: 35.5 µM [inhibitor, single point]	
CSc1nc2ccc(Br)cc2[nH]1	inconclusive: 11.2 µM [inhibitor, single point]	
CCC(=O)c1ccc(N2CCCCC2)c(F)c1		inactive: 21.7%
CCCOC(=O)c1c(NC(=O)C2c3ccccc3Oc3ccccc32)sc2c1CCCC2	inconclusive: 20 µM [inhibitor, single point]	

SMILES	Potency	activity change, negative = inhibition
COc1cccc(OCc2nc3ccccc3n2Cc2ccccc2C)c1		inactive: 26.5% [at 46.1 µM]
COc1ccc(S(=O)(=O)N2CCCC2CNC(=O)C(=O)Nc2ccc(C)cc2)cc1 (stereo unspecified)	inconclusive: 22.4 µM [inhibitor, single point]	
Nc1ccc(-c2cc3ccccc3oc2=O)cc1	inconclusive: 3.55 µM [inhibitor, full curve]	
Clc1cccc(-c2nnc(SC/C=C/c3ccccc3)n2Cc2ccco2)c1	inconclusive: 20.6 µM [inhibitor, single point]	
O=C(CSc1nnnn1C1CCCCC1)N1CCN(C(=O)c2ccco2)CC1	inconclusive: 23.1 µM [activator, partial curve, poor fit]	
COc1cc2cc(CN(CCc3cccc(C)c3)C(=S)NCCCN(C)C)c(=O)[nH]c2cc1OC	inconclusive: 22.4 µM [inhibitor, partial curve, poor fit]	
Cc1ccc(C2(CCN)CCOC(C(C)C)C2)cc1 (stereo unspecified)	inconclusive: 35.5 µM [inhibitor, partial curve, poor fit]	
CC1(c2ccc3ccccc3c2)NC(=O)N(CC(=O)Nc2cccc(S(=O)(=O)N3CCOCC3)c2)C1=O (stereo unspecified)	inconclusive: 25.1 µM [inhibitor, single point]	
CCOC(=O)c1cc(C#N)c(N2CCN(C)CC2)nc1-c1ccccc1		inactive: -12.8% [at 46.1 µM]
CCOC(=O)c1c(C)nc2c(c1C)/C(=N/O)CC(C)(C)C2	inconclusive: 18.3 µM [inhibitor, single point]	
CCN1CCN(c2ccc(NC(=O)c3cccc(OCc4ccccc4)c3)cc2)CC1	inconclusive: 35.5 µM [inhibitor, single point]	
Cc1cc(C)c(NC2=NCCCS2)c(C)c1	inconclusive: 3.55 µM [inhibitor, single point]	
C=CCOc1ccc(C=Nc2ccc(OC)cc2)c(O)c1	inconclusive: 35.5 µM [inhibitor, single point]	
Cc1ccc(OCC(=O)NCC(=O)Nc2ccc(F)cc2)c([N+](=O)[O-])n1	inconclusive: 5.01 µM [activator, full curve, poor fit]	
O=C(NCC(=O)c1ccccc1)OCc1ccc([N+](=O)[O-])cc1	inconclusive: 35.5 µM [activator, single point]	
Cc1cccc(NC(=O)c2ccc(C(=O)Nc3cccc(C)c3)nc2)c1	inconclusive: 10 µM [inhibitor, single point]	
COC(=O)N/N=C/c1ccccc1Cl		inactive: 7.99% [at 46.1 µM]
CC1=C(C(=O)OCc2ccccc2)C(c2cccc(F)c2)NC(=O)N1 (stereo unspecified)	inconclusive: 15.8 µM [inhibitor, single point]	
c1ccc(-c2nnsc2Sc2ccccn2)cc1	inconclusive: 14.1 µM [activator, single point]	
CC(C)N(CCc1ccncc1)C(=S)Nc1ccc(F)c(Cl)c1	inconclusive: 10 µM [inhibitor, partial curve]	
CCc1ccc(NC(=O)N(Cc2ccco2)C(C)c2cccs2)cc1 (stereo unspecified)	inconclusive: 29.1 µM [inhibitor, single point]	
COC(=O)c1ccc(CSc2nc3sc4c(c3c(=O)n2C)CCCC4)o1	inconclusive: 13 µM [inhibitor, partial curve, poor fit]	

Part of the list above, as a markdown table.

| SMILES | Potency | activity change, negative = inhibition |
| --- | --- | --- |
| O=C(CSc1nnnn1C1CCCCC1)N1CCN(C(=O)c2ccco2)CC1 | inconclusive: 23.1 µM [activator, partial curve, poor fit] |  |
| COc1cc2cc(CN(CCc3cccc(C)c3)C(=S)NCCCN(C)C)c(=O)[nH]c2cc1OC | inconclusive: 22.4 µM [inhibitor, partial curve, poor fit] |  |
| Cc1ccc(C2(CCN)CCOC(C(C)C)C2)cc1 (stereo unspecified) | inconclusive: 35.5 µM [inhibitor, partial curve, poor fit] |  |
| CC1(c2ccc3ccccc3c2)NC(=O)N(CC(=O)Nc2cccc(S(=O)(=O)N3CCOCC3)c2)C1=O (stereo unspecified) | inconclusive: 25.1 µM [inhibitor, single point] |  |
| CCOC(=O)c1cc(C#N)c(N2CCN(C)CC2)nc1-c1ccccc1 |  | inactive: -12.8% [at 46.1 µM] |
| CCOC(=O)c1c(C)nc2c(c1C)/C(=N/O)CC(C)(C)C2 | inconclusive: 18.3 µM [inhibitor, single point] |  |
| CCN1CCN(c2ccc(NC(=O)c3cccc(OCc4ccccc4)c3)cc2)CC1 | inconclusive: 35.5 µM [inhibitor, single point] |  |
| Cc1cc(C)c(NC2=NCCCS2)c(C)c1 | inconclusive: 3.55 µM [inhibitor, single point] |  |
| C=CCOc1ccc(C=Nc2ccc(OC)cc2)c(O)c1 | inconclusive: 35.5 µM [inhibitor, single point] |  |
| Cc1ccc(OCC(=O)NCC(=O)Nc2ccc(F)cc2)c([N+](=O)[O-])n1 | inconclusive: 5.01 µM [activator, full curve, poor fit] |  |
| O=C(NCC(=O)c1ccccc1)OCc1ccc([N+](=O)[O-])cc1 | inconclusive: 35.5 µM [activator, single point] |  |
| Cc1cccc(NC(=O)c2ccc(C(=O)Nc3cccc(C)c3)nc2)c1 | inconclusive: 10 µM [inhibitor, single point] |  |
| COC(=O)N/N=C/c1ccccc1Cl |  | inactive: 7.99% [at 46.1 µM] |
| CC1=C(C(=O)OCc2ccccc2)C(c2cccc(F)c2)NC(=O)N1 (stereo unspecified) | inconclusive: 15.8 µM [inhibitor, single point] |  |
| c1ccc(-c2nnsc2Sc2ccccn2)cc1 | inconclusive: 14.1 µM [activator, single point] |  |
